In the test the target is endogenous SAG (human (endogenous in DU145)) (UniProt Q9UBF6). Put plainly: co-IP; endogenous proteins; sub-confluent DU145 cells lysed and IP with anti-SAG (Fig. 3c), anti-PHLPP1 (Fig. 3d) or anti-DEPTOR Ab (Fig. 3e), along with IgG control, IB with indicated Abs; physiological unstressed condition.

By UniProt entry, the sequences of proteins in these tests, tags left out.
UniProt Q9UBF6: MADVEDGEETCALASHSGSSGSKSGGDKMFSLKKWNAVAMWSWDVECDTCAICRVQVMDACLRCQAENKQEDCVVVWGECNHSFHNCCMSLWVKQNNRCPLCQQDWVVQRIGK
UniProt Q93034: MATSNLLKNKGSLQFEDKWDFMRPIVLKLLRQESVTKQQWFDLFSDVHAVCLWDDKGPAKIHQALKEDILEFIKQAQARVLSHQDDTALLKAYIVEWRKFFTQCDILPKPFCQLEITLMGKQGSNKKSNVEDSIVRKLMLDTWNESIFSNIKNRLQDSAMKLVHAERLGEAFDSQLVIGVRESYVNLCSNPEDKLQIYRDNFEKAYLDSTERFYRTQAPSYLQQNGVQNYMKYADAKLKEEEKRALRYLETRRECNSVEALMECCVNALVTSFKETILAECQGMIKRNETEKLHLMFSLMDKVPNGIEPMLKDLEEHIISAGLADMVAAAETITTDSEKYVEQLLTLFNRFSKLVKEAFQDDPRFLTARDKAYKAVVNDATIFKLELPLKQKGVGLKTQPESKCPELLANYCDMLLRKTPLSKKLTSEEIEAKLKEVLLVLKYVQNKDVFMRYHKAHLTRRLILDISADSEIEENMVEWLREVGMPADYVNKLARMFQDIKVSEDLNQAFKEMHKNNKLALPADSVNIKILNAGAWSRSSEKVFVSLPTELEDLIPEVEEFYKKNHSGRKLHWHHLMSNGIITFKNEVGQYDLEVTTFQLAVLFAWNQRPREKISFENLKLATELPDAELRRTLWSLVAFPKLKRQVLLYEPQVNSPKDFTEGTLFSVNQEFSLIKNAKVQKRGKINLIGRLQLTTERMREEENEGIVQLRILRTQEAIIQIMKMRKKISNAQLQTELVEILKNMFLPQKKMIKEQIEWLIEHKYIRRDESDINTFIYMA

Drawing on paper PMC5153812, this text covers binding for 1 substance.

These are yes or no findings as the source states them, for the method shown. Binding seen in cells or lysates may run through a third protein. Some entries that bind do so weakly or less than the wild type.

For Cul5 (from UniProt Q93034 1-780), the binding result is reported as “binds”.
